The values that follow come from PubChem BioAssay AID493014 (National Center for Advancing Translational Sciences (NCATS), 2011).

The list shows a part of the results. Shown are side measurements of this screen, not its main read-out; they come without a call. The list favours compounds with an active or inconclusive main result. Words in brackets tell the shape of the fitted curve; partial curves, single points and poor fits give uncertain potencies.

The test in a line: qHTS Assay to Find Inhibitors of Chronic Active B-Cell Receptor Signaling. To be noted: ABC-DLBCL IkBa-CBG/CBR reporter, luminescence ratio (green luciferase fused to IkBa over red control in TMD8 lymphoma cells), 4 h. The essentials:
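Cell line TMD8 (human ABC DLBCL), stably expressing tet-inducible CBG68-IkBa fusion and CBR; IMDM/0.5% FBS; cpd up to 46 uM; dox induction, 4 h, 37C/5% CO2; dual luminescence; green/red ratio; MG132 control.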
For orientation: Quantitative high-throughput screening tests each substance at several concentrations.

The mark [1] stands for this setting: measured here: CBR red luminescence, cell number.
[2] abbreviates: measured here: IkBa-CBG green luminescence.

For `CCN(CC)C(=O)C1CCN(Cc2cn(C)nc2-c2ccc(Oc3ccccc3)cc2)CC1`, the AC50 under setting [1] is 6.31 µM [rising, single point].

`CCn1c(=N)n(CC(=O)c2cccc([N+](=O)[O-])c2)c2ccccc21`: under setting [1], the concentration at half-maximal activity (AC50) was 8.2 µM [rising, partial curve, poor fit].

On to `COC(=O)[C@@]1(Cc2ccc(F)cc2)[C@H]2c3cc(C(=O)N4CCCC4)n(CCCNc4ncc(C(F)(F)F)cc4Cl)c3C[C@H]2CN1C(=O)c1ccccc1`, for which the AC50 under setting [1] is 5.62 µM [falling, full curve].

Consider `Cc1ccc(NC(=O)Cn2cccc2)c(Br)c1`, for which the AC50 under setting [1] is 14.1 µM [rising, partial curve, poor fit].

For the molecule `CCOC(=O)c1sc(Nc2nc3c(F)cccc3s2)cc1C`, under setting [1], the AC50 is 14.6 µM [rising, single point].

Turning to `O=c1c2c3nc4ccccc4nc3n(Cc3ccccc3)c2ncn1Cc1ccco1`, the AC50 under setting [1] is 0.731 µM [falling, full curve, poor fit].

Regarding `COc1cccc(/C=N\NC(=O)C2=NNC(=O)C2C)c1O` (stereo unspecified), the AC50 under setting [1] was 0.92 µM [falling, full curve].

Turning to `Cc1cc(S(=O)(=O)Nc2ccc(C(=O)NCC3(N4CCCCC4)CCCCC3)cc2)ccc1F`, the AC50 under setting [1] is 20.6 µM [falling, single point].

Regarding `CCCCOc1ccc(C(=O)OC2CC(C)N(C)CC2C)cc1` (stereo unspecified), the AC50 was 4.11 µM [falling, single point] under setting [1] and 6.51 µM [rising, partial curve, poor fit] under setting [2].

For the molecule `CCCOc1ccc(C(=O)CCNC(Cc2c[nH]c3ccccc23)C(=O)O)cc1` (stereo unspecified), under setting [1], the AC50 was 25.1 µM [falling, single point].

In the case of `CN1CCc2c(n(CC(O)CN3C(=O)c4ccccc4S3(=O)=O)c3ccccc23)C1=O` (stereo unspecified), the AC50 under setting [1] is 4.61 µM [rising, single point].

Take `C=C(C)CNC(=S)NNC(=O)c1ccc(Br)cc1`: the AC50 under setting [1] was 8.2 µM [falling, partial curve].

For the molecule `CC(C)(C)c1ccc(S(=O)(=O)Nc2ccc(Cc3ccncc3)cc2)cc1`, the concentration at half-maximal activity (AC50) under setting [1] was 29.1 µM [falling, single point].

On to `Cc1n[nH]c(C)c1Sc1ccccc1N=Cc1cc([N+](=O)[O-])ccc1O`, for which the AC50 under setting [1] was 8.2 µM [rising, single point].

For `CC1(C(=O)N/N=C/c2ccc3c(c2)OCO3)CC1(Br)Br` (stereo unspecified), the AC50 under setting [1] is 11.2 µM [falling, single point].

Regarding `C[C@H](CO)N1C[C@H](C)[C@H](CN(C)S(=O)(=O)c2cccs2)Oc2ccc(NC(=O)Nc3ccc4c(c3)OCO4)cc2CC1=O`, the AC50 under setting [1] is 29.1 µM [rising, single point].

With `O=C(Nc1nnc(-c2cccs2)o1)C1CC1`, the AC50 under setting [1] was 11.2 µM [falling, partial curve, poor fit].

With `Cc1ccnc(NC(c2ccccn2)c2c(C)[nH]c3ccccc23)c1` (stereo unspecified), the AC50 under setting [1] was 11.2 µM [falling, partial curve].

On to `CCOc1cc2[nH]c(=S)n(CCOC)c(=O)c2cc1OCC`, for which, under setting [1], the AC50 is 9.2 µM [falling, partial curve, poor fit].

For the molecule `CSc1nc2nc3c(c(=O)n2[nH]1)CCC3`, the AC50 under setting [1] was 0.082 µM [falling, full curve, poor fit].

For the molecule `O=C(Nc1ccc(N2CCN(C(=O)c3ccco3)CC2)c(Cl)c1)c1cccs1`, the AC50 under setting [1] is 13 µM [falling, partial curve].

For `Nc1ccc(C(=O)Nc2ccc(NC(=O)c3ccco3)c(O)c2)cc1`, under setting [1], the AC50 was 2.82 µM [falling, partial curve, poor fit].

Turning to `O=c1oc(-c2ccc(O)c(O)c2)cc2cccc(O)c12`, under setting [1], the AC50 was 32.6 µM [falling, single point].

In the case of `O=C(c1nnc(-c2ccc(Cl)cc2)o1)C1CCCC1`, the concentration at half-maximal activity (AC50) under setting [1] was 0.562 µM [rising, partial curve, poor fit].

`O=C(Nc1nccs1)c1ccc(-c2ccccc2[N+](=O)[O-])o1`: the AC50 under setting [1] was 7.94 µM [falling, partial curve].

Consider `S=C(NCc1ccc(Cl)cc1)NC1CCN(Cc2ccccc2)CC1`, for which the AC50 under setting [1] is 12.6 µM [falling, partial curve, poor fit].

Regarding `C=C(Cl)COc1ccc2c(C)cc(=O)oc2c1`, the AC50 under setting [1] is 7.31 µM [rising, partial curve].

For `CCN1C(=O)c2cccc3c(S(=O)(=O)Nc4c(C)n(C)n(-c5ccccc5)c4=O)ccc1c23`, under setting [1], the AC50 was 1.03 µM [falling, full curve, poor fit].

`O=C(NCC1CCCO1)c1ccc(N2C(=O)C3CCCCC3C2=O)cc1` (stereo unspecified): under setting [1], the half-maximal activity concentration (AC50) was 35.5 µM [rising, partial curve, poor fit].

Take `COCC(C)N1CCC(Oc2cccc(C(=O)NCCc3ccccc3)c2)CC1` (stereo unspecified): the AC50 under setting [1] is 6.31 µM [falling, full curve].

As for `Fc1ccc(CSc2nc3ncc(Br)cc3[nH]2)cc1`, under setting [1], the AC50 is 5.8 µM [falling, full curve, poor fit].

In the case of `COc1ccc(/C=C/C(=O)O)cc1S(=O)(=O)N1CCc2ccccc21`, the AC50 under setting [1] was 6.31 µM [rising, single point].

In the case of `O=C(CN1CCCC1)N1CCCC(c2ccc(F)cc2)c2ccc(F)cc21` (stereo unspecified), the AC50 under setting [1] was 29.1 µM [falling, single point].

In the case of `CNS(=O)(=O)c1cccc(C(=O)OCC(=O)NC2CCCC(C)C2C)c1` (stereo unspecified), under setting [1], the AC50 is 29.1 µM [rising, single point].

As for `N=c1occ(C(=O)c2cc(F)ccc2O)cc1C(=O)NC1CCCCC1`, the AC50 under setting [1] was 11.2 µM [falling, partial curve].

Take `C=C(C)c1cccc(C(C)(C)NC(=O)N2CCC(C)CC2)c1`: under setting [1], the concentration at half-maximal activity (AC50) was 16.4 µM [falling, partial curve, poor fit].

Turning to `CCOCc1nnc(NC(=O)c2cccs2)s1`, the AC50 under setting [1] was 29.1 µM [falling, single point].

`COc1ccc(-c2csc(Cc3nnc(N4CCOCC4)n3-c3ccccc3)n2)cc1OC`: the AC50 under setting [1] was 20.6 µM [falling, single point].

Regarding `Cc1ccc(-c2nnc(Nc3cccc(O)c3)c3ccccc23)cc1S(=O)(=O)NCCO`, the AC50 under setting [1] was 20 µM [falling, single point].

Consider `CCOC(=O)C1CCN(CC(=O)Nc2c(C(=O)OC)[nH]c3ccc(Cl)cc23)CC1`, for which the half-maximal activity concentration (AC50) under setting [1] is 13 µM [falling, partial curve, poor fit].

For the molecule `COc1ccccc1NC(=O)N1CCn2c(nc3ccccc32)C1`, under setting [1], the AC50 is 11.2 µM [falling, partial curve, poor fit].

Consider `Cc1cc(SCC#N)n2nc(C)c(-c3ccc(Cl)cc3)c2n1`, for which the AC50 under setting [1] is 0.58 µM [rising, full curve, poor fit].

As for `CCCC(C(=O)NCc1ccco1)N(C(=O)CNS(=O)(=O)c1ccc(Cl)cc1)C1CCCC1` (stereo unspecified), under setting [1], the AC50 was 20.6 µM [falling, single point].

As for `Cc1ccc(S(=O)(=O)N2CCC(C(=O)OCC(=O)NCc3ccco3)CC2)cc1C`, the AC50 under setting [1] is 29.1 µM [rising, partial curve, poor fit].

As to `O=C(Oc1ccc(Cl)cc1)N1CCCCC1`, the half-maximal activity concentration (AC50) under setting [1] was 29.1 µM [rising, single point].

Consider `O=C(c1ccc(Br)cc1)c1cc([N+](=O)[O-])ccc1N1CCOCC1`, for which the AC50 under setting [1] was 8.91 µM [rising, partial curve, poor fit] and the AC50 under setting [2] is 17.8 µM [falling, single point].

`COc1ccccc1C(=O)Nc1ccc2[nH]ncc2c1`: the half-maximal activity concentration (AC50) under setting [1] was 11.2 µM [falling, single point].

Consider `Nn1c(Cc2cccc3ccccc23)nnc1SC1CCOC1=O` (stereo unspecified), for which the AC50 under setting [1] is 32.6 µM [rising, partial curve, poor fit].

Take `O=C(Nc1ccccc1)N1CCSCC1`: the AC50 under setting [1] was 14.1 µM [rising, single point].

In the case of `CCN1CCCc2cc(CN(CCN3CCOCC3)C(=S)Nc3cc(F)cc(F)c3)ccc21`, under setting [1], the AC50 is 35.5 µM [rising, single point].

Take `COc1cc(C(=O)Oc2cc(N)n(S(=O)(=O)c3ccc(F)cc3)n2)cc(OC)c1OC`: the AC50 under setting [1] is 12.6 µM [falling, single point].

For the molecule `COC(=O)c1ccc(NC(=O)c2cc3sccc3n2C)cc1`, under setting [1], the AC50 was 0.708 µM [falling, full curve].

Consider `COc1ccc(/C=C/C(=O)c2ccc(OC)cc2OC)c(OC)c1`, for which the AC50 under setting [1] is 7.94 µM [falling, partial curve, poor fit].

Consider `OCCN(CCO)c1nc(N2CCCCC2)c2nc(N(CCO)CCO)nc(N3CCCCC3)c2n1`, for which the AC50 under setting [1] was 0.0206 µM [rising, full curve, poor fit].

In the case of `COC(=O)c1c(NC(=O)C(C)(C)C)csc1C`, under setting [1], the AC50 is 7.94 µM [rising, partial curve].

Regarding `CCn1c(COc2ccc3c(c2)CCCC3)nnc1SCC(=O)Nc1ccc(C(=O)OC)cc1`, the concentration at half-maximal activity (AC50) under setting [1] is 20.6 µM [rising, partial curve, poor fit].

For `CCN(CC)C(=O)COc1ccc(/C(C)=N/Nc2ncc(Cl)cc2Cl)cc1`, the AC50 is, setting by setting: under setting [1], 35.5 µM [falling, single point]; under setting [2], 31.6 µM [falling, single point].

As to `N#Cc1ccc(-c2ccc(OCC(=O)NCCc3ccccc3)cc2)cc1`, the AC50 under setting [1] was 0.146 µM [falling, full curve, poor fit].

Turning to `O=c1cc(-c2ccsc2)oc2ccc(-c3ccc4cc[nH]c4c3)cc12`, the AC50 under setting [1] is 29.1 µM [falling, single point].

As to `COc1ccc(/C=C/C(=O)c2ccc(O)cc2)cc1COc1ccc(F)cc1`, the concentration at half-maximal activity (AC50) under setting [1] was 22.4 µM [falling, single point].

With `CCn1cc(C(=O)N[C@H](C(=O)NCCCO)C(C)C)c(=O)c2cc3c(cc21)OCO3`, under setting [1], the AC50 is 31.6 µM [rising, single point].

For the molecule `CC(C)Cc1nnc(NC(=O)c2cc3c(s2)CCC3)s1`, under setting [1], the AC50 is 0.0891 µM [rising, full curve, poor fit].

For `Cc1cccc(OCC(=O)N/N=C/c2ccc3c(c2)OCO3)c1`, the AC50 under setting [1] is 14.1 µM [falling, single point].

As a reminder, the AC50 is the concentration at which the activity in the assay is half-maximal.
